# Reference: the supplement of paper PMC8728848
# Some of the results follow.
# Experiments:
# Assay in all cases: glycan array binding signal (z-score within array); higher = stronger binding
# Conditions in all cases: glycan notation: IUPAC condensed, linker removed
# [1] = target: GlcNAc(b1-3)Gal(b1-4)GlcNAc(b1-3)Gal(b1-4)GlcNAc(b1-2)Man(a1-3)[GlcNAc(b1-3)Gal(b1-4)GlcNAc(b1-3)Gal(b1-4)GlcNAc(b1-2)Man(a1-6)]Man(b1-4)GlcNAc(b1-4)GlcNAc
# Summary of the method: (§1)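 Arrays were curated from the Consortium for Functional Glycomics database, 3228 in total, and kept only where the protein sequence was available. Binding is expressed as a within-array Z-score. This score was averaged across arrays of the same protein sequence at different concentrations or buffers and across linkers, and negative values can be read as non-binding.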
# [2] = target: GlcNAc(b1-3)Gal(b1-4)GlcNAc(b1-3)Gal(b1-4)GlcNAc(b1-2)Man(a1-3)[GlcNAc(b1-3)Gal(b1-4)GlcNAc(b1-3)Gal(b1-4)GlcNAc(b1-2)Man(a1-6)]Man(b1-4)GlcNAc(b1-4)[Fuc(a1-6)]GlcNAc
# Summary of the method: as §1
# [3] = target: GlcNAc(b1-3)Gal(b1-4)GlcNAc(b1-3)Gal(b1-4)GlcNAc(b1-2)[GlcNAc(b1-3)Gal(b1-4)GlcNAc(b1-3)Gal(b1-4)GlcNAc(b1-6)]Man(a1-6)[GlcNAc(b1-3)Gal(b1-4)GlcNAc(b1-3)Gal(b1-4)GlcNAc(b1-2)Man(a1-3)]Man(b1-4)GlcNAc(b1-4)[Fuc(a1-6)]GlcNAc
# Summary of the method: as §1
# [4] = target: GlcNAc(b1-3)Gal(b1-4)GlcNAc(b1-3)Gal(b1-4)GlcNAc(b1-3)Gal(b1-4)GlcNAc(b1-2)Man(a1-3)[GlcNAc(b1-3)Gal(b1-4)GlcNAc(b1-3)Gal(b1-4)GlcNAc(b1-3)Gal(b1-4)GlcNAc(b1-2)Man(a1-6)]Man(b1-4)GlcNAc(b1-4)GlcNAc
# Summary of the method: as §1
# [5] = target: GlcNAc(b1-3)Gal(b1-4)GlcNAc(b1-3)Gal(b1-4)GlcNAc(b1-3)Gal(b1-4)GlcNAc(b1-2)Man(a1-3)[GlcNAc(b1-3)Gal(b1-4)GlcNAc(b1-3)Gal(b1-4)GlcNAc(b1-3)Gal(b1-4)GlcNAc(b1-2)Man(a1-6)]Man(b1-4)GlcNAc(b1-4)[Fuc(a1-6)]GlcNAc
# Summary of the method: as §1
# [6] = target: GlcNAc(b1-3)Gal(b1-4)GlcNAc(b1-3)Gal(b1-4)GlcNAc(b1-3)Gal(b1-4)GlcNAc(b1-2)[GlcNAc(b1-3)Gal(b1-4)GlcNAc(b1-3)Gal(b1-4)GlcNAc(b1-3)Gal(b1-4)GlcNAc(b1-6)]Man(a1-6)[GlcNAc(b1-3)Gal(b1-4)GlcNAc(b1-3)Gal(b1-4)GlcNAc(b1-3)Gal(b1-4)GlcNAc(b1-2)Man(a1-3)]Man(b1-4)GlcNAc(b1-4)[Fuc(a1-6)]GlcNAc
# Summary of the method: as §1
# [7] = target: GlcNAc(b1-3)Gal(b1-4)GlcNAc(b1-3)Gal(b1-4)GlcNAc(b1-3)Gal(b1-4)GlcNAc(b1-3)Gal(b1-4)GlcNAc(b1-2)Man(a1-3)[GlcNAc(b1-3)Gal(b1-4)GlcNAc(b1-3)Gal(b1-4)GlcNAc(b1-3)Gal(b1-4)GlcNAc(b1-3)Gal(b1-4)GlcNAc(b1-2)Man(a1-6)]Man(b1-4)GlcNAc(b1-4)GlcNAc
# Summary of the method: as §1
# [8] = target: GlcNAc(b1-3)Gal(b1-4)GlcNAc(b1-3)Gal(b1-4)GlcNAc(b1-3)Gal(b1-4)GlcNAc(b1-3)Gal(b1-4)GlcNAc(b1-2)Man(a1-3)[GlcNAc(b1-3)Gal(b1-4)GlcNAc(b1-3)Gal(b1-4)GlcNAc(b1-3)Gal(b1-4)GlcNAc(b1-3)Gal(b1-4)GlcNAc(b1-2)Man(a1-6)]Man(b1-4)GlcNAc(b1-4)[Fuc(a1-6)]GlcNAc
# Summary of the method: as §1
# [9] = target: GlcNAc(b1-3)Gal(b1-4)GlcNAc(b1-3)Gal(b1-4)GlcNAc(b1-3)Gal(b1-4)GlcNAc(b1-3)Gal(b1-4)GlcNAc(b1-2)[GlcNAc(b1-3)Gal(b1-4)GlcNAc(b1-3)Gal(b1-4)GlcNAc(b1-3)Gal(b1-4)GlcNAc(b1-3)Gal(b1-4)GlcNAc(b1-6)]Man(a1-6)[GlcNAc(b1-3)Gal(b1-4)GlcNAc(b1-3)Gal(b1-4)GlcNAc(b1-3)Gal(b1-4)GlcNAc(b1-3)Gal(b1-4)GlcNAc(b1-2)Man(a1-3)]Man(b1-4)GlcNAc(b1-4)[Fuc(a1-6)]GlcNAc
# Summary of the method: as §1
# [10] = target: GlcNAc(b1-3)Gal(b1-4)GlcNAc(b1-3)Gal(b1-4)GlcNAc(b1-3)GalNAc
# Summary of the method: as §1
# [11] = target: GlcNAc(b1-3)Gal(b1-4)GlcNAc(b1-3)GalNAc
# Summary of the method: as §1
# [12] = target: GlcNAc(b1-3)Gal(b1-4)GlcNAc(b1-3)[GlcNAc(b1-3)Gal(b1-4)GlcNAc(b1-3)]GalNAc
# Summary of the method: as §1
# [13] = target: GlcNAc(b1-3)Gal(b1-4)GlcNAc(b1-6)[Gal(b1-3)]GalNAc
# Summary of the method: as §1
# [14] = target: GlcNAc(b1-3)Gal(b1-4)GlcNAc(b1-6)[GlcNAc(b1-3)Gal(b1-3)]GalNAc
# Summary of the method: as §1
# [15] = target: GlcNAc(b1-3)Gal(b1-4)GlcNAc(b1-6)[GlcNAc(b1-3)]Gal(b1-4)GlcNAc
# Summary of the method: as §1
# GlcNAc(b1-3)GalNAc = target: GlcNAc(b1-3)GalNAc
# Summary of the method: as §1
# GlcNAc(b1-3)Man = target: GlcNAc(b1-3)Man
# Summary of the method: as §1
# [16] = target: GlcNAc(b1-3)[GlcNAc(b1-4)][GlcNAc(b1-6)]GlcNAc
# Summary of the method: as §1
# [17] = target: GlcNAc(b1-3)[GlcNAc(b1-6)]Gal(b1-4)GlcNAc
# Summary of the method: as §1
# [18] = target: GlcNAc(b1-3)[GlcNAc(b1-6)]GalNAc
# Summary of the method: as §1
# [19] = target: GlcNAc(b1-4)Gal(b1-4)GlcNAc
# Summary of the method: as §1
# GlcNAc(b1-4)GlcNAc = target: GlcNAc(b1-4)GlcNAc
# Summary of the method: as §1
# [20] = target: GlcNAc(b1-4)GlcNAc(b1-4)GlcNAc
# Summary of the method: as §1
binder,measurement,setting,value
Epa21 (Candida glabrata) (protein) MGSSHHHHHHSSGLVPRGSHMASTPNIESHPQGCSPVDTSGIKPGLKMDLYRFPITPPGTGCWSWDWLTVTPDFPRSGYWKWPKIAEVDGVVGPLHLDSGHPTCDPLTSVLPHGFNYLQSITTTNFTMVLHGYFVPKQSGKYTFEFKADDALLLNLGAGNAFSCCDYNNSQYNQGEYLAYAIWSKNNQTATLYLEKGIYYPIRVFYHNRCCGAYMDVVYYFNDSPIPNRDFSGLLFSIPDSDSCDANI,glycan array binding signal (z-score),[1],1.46
same,glycan array binding signal (z-score),[2],1.52
same,glycan array binding signal (z-score),[3],0.575
same,glycan array binding signal (z-score),[4],0.199
same,glycan array binding signal (z-score),[5],1.66
same,glycan array binding signal (z-score),[6],0.289
same,glycan array binding signal (z-score),[7],0.756
same,glycan array binding signal (z-score),[8],0.735
same,glycan array binding signal (z-score),[9],-0.202
same,glycan array binding signal (z-score),[10],0.384
same,glycan array binding signal (z-score),[11],-0.056
same,glycan array binding signal (z-score),[12],0.027
same,glycan array binding signal (z-score),[13],0.399
same,glycan array binding signal (z-score),[14],0.504
same,glycan array binding signal (z-score),[15],-0.54
same,glycan array binding signal (z-score),GlcNAc(b1-3)GalNAc,-0.605
same,glycan array binding signal (z-score),GlcNAc(b1-3)Man,0.016
same,glycan array binding signal (z-score),[16],-0.443
same,glycan array binding signal (z-score),[17],-0.392
same,glycan array binding signal (z-score),[18],-0.434
same,glycan array binding signal (z-score),[19],-0.138
same,glycan array binding signal (z-score),GlcNAc(b1-4)GlcNAc,0.009
same,glycan array binding signal (z-score),[20],-0.39

# Two records drawn at random from those above:
binder,measurement,setting,value
Epa21 (Candida glabrata) (protein) MGSSHHHHHHSSGLVPRGSHMASTPNIESHPQGCSPVDTSGIKPGLKMDLYRFPITPPGTGCWSWDWLTVTPDFPRSGYWKWPKIAEVDGVVGPLHLDSGHPTCDPLTSVLPHGFNYLQSITTTNFTMVLHGYFVPKQSGKYTFEFKADDALLLNLGAGNAFSCCDYNNSQYNQGEYLAYAIWSKNNQTATLYLEKGIYYPIRVFYHNRCCGAYMDVVYYFNDSPIPNRDFSGLLFSIPDSDSCDANI,glycan array binding signal (z-score),[10],0.384
same,glycan array binding signal (z-score),[1],1.46
